# Like-named read-outs stand apart in the source and are kept apart here. These are yes or no findings as the source states them, for the method shown. Binding seen in cells or lysates may run through a third protein. Some entries that bind do so weakly or less than the wild type. For some of these results: Sequences can lack the tags named with a protein.
# Protein sequences, listed by entry. Tags and fused reporters are not part of them.
# UniProt P04150: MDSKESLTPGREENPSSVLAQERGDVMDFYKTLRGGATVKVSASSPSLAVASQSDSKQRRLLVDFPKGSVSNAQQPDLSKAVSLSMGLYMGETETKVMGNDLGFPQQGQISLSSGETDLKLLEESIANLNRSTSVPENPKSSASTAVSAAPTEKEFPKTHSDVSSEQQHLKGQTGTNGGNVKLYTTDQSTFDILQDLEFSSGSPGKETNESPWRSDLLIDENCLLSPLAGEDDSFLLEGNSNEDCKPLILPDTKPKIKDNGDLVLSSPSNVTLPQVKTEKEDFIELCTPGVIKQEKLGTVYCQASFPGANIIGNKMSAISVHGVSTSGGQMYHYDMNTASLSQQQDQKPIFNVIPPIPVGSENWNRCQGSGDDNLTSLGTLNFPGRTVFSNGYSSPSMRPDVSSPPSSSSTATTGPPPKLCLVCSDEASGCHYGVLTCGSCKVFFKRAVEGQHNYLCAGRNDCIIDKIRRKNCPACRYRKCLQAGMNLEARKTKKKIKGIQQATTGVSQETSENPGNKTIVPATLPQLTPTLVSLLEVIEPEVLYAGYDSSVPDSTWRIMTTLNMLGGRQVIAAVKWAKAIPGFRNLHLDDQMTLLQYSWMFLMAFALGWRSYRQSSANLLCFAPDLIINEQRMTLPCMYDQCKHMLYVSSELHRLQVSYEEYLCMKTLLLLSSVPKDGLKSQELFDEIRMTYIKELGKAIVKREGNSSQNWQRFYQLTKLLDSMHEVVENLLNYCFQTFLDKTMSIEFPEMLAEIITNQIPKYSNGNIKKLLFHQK
# UniProt P15090: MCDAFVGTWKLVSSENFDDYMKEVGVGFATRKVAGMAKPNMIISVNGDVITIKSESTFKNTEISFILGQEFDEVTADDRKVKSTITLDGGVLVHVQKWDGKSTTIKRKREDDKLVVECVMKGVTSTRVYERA
# Experiments:
# Assay in all cases: FRET or BRET
# [1] = biological target: GR-dsRed (human glucocorticoid receptor, α sub-type, fused to dsRed fluorescent protein) (human) (UniProt P04150)
# [2] = biological target: GR-dsRed (human glucocorticoid receptor, α sub-type, fused to dsRed fluorescent protein) (human) (UniProt P04150); remark: listed apart in the source
# [3] = biological target: GR-dsRed (human glucocorticoid receptor, α sub-type, fused to dsRed fluorescent protein) (human) (UniProt P04150); remark: listed apart in the source
Molecule,binding [1],binding [2],binding [3]
"GFP-FABP4 (human fatty acid binding protein 4, GFP-tagged) (from UniProt P15090 1-132)",binds,no binding (condition: in the cytosol),
"GFP-FABP1 (human fatty acid binding protein 1, GFP-tagged) (protein, UniProt P07148 1-127) MSFSGKYQLQSQENFEAFMKAIGLPEELIQKGKDIKGVSEIVQNGKHFKFTITAGSKVIQNEFTVGEECELETMTGEKVKTVVQLEGDNKLVTTFKNIKSVTELNGDIITNTMTLGDIVFKRISKRI",binds,,no binding (condition: in the cytosol)
